Structures were worked out from names or drawings and are uncertain.
How the values were obtained:
[1] = target: 5-HT2C (Homo sapiens (Human), UniProt P28335); assay: HTRF IP-One antagonist assay, 5-HT2C; conditions: read-out: 5-HT2C IC50; HEK293 cells stably expressing receptor, inositol phosphate accumulation, 80 nM 5-HT in Assay Buffer;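 note: clonal HEK293 line with low 5-HT2C density (10–20 fmol/mg), HTRF detection of IP-One, 10-point dose curves from 10 µM in 5-fold steps, triplicate points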
[2] = target: T1, 5-HT2A (Homo sapiens (Human), UniProt P28223); assay: HTRF IP-One antagonist assay, 5-HT2A; conditions: read-out: 5-HT2A IC50; HEK293 cells stably expressing receptor, inositol phosphate accumulation, 80 nM 5-HT in Assay Buffer;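 note: clonal line with low receptor density (about 50–70 fmol/mg), 10-point dose-response from 10 µM in 5-fold steps, HTRF detection after 1 hr, triplicate points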
[3] = target: T1, 5-HT2A; assay: Radioligand binding assay, [^3H]5-HT competition, 5-HT2A; conditions: read-out: 5-HT2A serotonin binding Ki value; [^3H]5-HT radioligand, membranes of HEK293 cells expressing recombinant 5-HT2A; Ki from IC50 by Cheng-Prusoff

The chains behind the UniProt entries cited, without tags or fusion partners. Residues count along the entry.
UniProt P28335, 33-458 limits assumed: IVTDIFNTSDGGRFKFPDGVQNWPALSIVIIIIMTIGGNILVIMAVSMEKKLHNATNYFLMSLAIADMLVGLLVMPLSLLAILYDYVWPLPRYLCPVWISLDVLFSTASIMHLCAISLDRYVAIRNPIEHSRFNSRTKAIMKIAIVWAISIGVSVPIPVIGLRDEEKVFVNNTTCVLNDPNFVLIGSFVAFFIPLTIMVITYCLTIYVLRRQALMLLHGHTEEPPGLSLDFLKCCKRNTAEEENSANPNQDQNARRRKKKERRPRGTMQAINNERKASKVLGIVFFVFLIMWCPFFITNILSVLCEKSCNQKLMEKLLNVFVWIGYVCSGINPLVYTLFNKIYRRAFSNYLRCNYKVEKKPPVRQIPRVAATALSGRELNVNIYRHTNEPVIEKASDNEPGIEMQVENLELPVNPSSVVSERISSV
UniProt P28223, whole entry: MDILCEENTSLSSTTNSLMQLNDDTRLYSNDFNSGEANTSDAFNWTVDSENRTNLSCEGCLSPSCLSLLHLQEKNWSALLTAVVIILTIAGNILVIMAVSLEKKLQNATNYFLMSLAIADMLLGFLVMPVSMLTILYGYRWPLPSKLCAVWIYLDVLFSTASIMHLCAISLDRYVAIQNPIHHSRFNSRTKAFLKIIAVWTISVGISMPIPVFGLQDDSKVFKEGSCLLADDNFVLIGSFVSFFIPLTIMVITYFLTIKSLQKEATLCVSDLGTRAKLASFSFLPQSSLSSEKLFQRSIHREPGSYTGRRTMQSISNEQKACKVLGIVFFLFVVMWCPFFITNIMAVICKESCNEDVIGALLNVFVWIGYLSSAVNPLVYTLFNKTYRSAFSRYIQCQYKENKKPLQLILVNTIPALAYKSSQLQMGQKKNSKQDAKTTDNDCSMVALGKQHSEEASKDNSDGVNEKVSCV

Cc1ncnc(C)c1-c1cc(NC(=O)c2ncsc2C)ccc1OCCN1CCCC1
IC50 [1]: 100000 nM
IC50 [2]: 16.1 nM
Ki [3]: 2.48 nM

— US20250270172A1
